For at least one entry, the source does not settle the construct or the ends of the probe. Whether high values mean tight binding is not given here for every scale.
Molecular target: S-nitrosylated parkin (SNO-parkin, GST-tagged) (UniProt O60260)
Experiment: EMSA
Details: parkin pre-incubated 10 min with 200 uM fresh SNOC, p<0.01, n=4, text does not say whether 47% is remaining or lost; 1x binding buffer (Panomics), room temperature, 20 min; 0.1 nM biotin probe, 1 uM parkin (100 nM-1 uM titration); 6% PAGE in 0.5x TBE pH 8.3; salt not stated; recombinant protein; protein details: GST; label: 5' biotin

Sequences of proteins named here, by UniProt entry; tags and fusion partners are left off. A change or cut given only in a name is not applied to a line headed by its entry.
UniProt O60260: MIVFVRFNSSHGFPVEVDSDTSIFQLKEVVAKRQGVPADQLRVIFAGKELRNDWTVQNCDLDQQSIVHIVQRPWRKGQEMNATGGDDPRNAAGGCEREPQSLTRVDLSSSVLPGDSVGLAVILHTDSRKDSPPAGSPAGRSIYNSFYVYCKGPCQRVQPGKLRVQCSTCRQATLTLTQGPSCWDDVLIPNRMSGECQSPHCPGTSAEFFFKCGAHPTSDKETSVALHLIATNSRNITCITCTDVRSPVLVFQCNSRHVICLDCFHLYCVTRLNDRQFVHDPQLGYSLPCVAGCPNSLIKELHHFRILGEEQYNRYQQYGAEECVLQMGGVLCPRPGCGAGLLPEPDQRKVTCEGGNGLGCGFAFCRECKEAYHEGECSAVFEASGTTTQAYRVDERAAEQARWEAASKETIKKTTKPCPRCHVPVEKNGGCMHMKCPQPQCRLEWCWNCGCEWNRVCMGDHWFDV

GGCACCAGGTCGGCGAGAATCCTGACTCTGCACCCTCCTCCCCAACTCCATTTCCTTTGCTTCCTCCGGC (double strand) [Pp53 (human p53 promoter probe)]
binding signal (% relative to old SNOC): 47

— paper PMC3765907
